No constants are given. Whether binding was seen depends on the method and setting. Binding seen in cells or lysates may run through a third protein. Binding calls can cover weak binding; strength is not graded here.

The target of this experiment is histone H2B (mouse (endogenous in BMDMs)). The experiment in a line: co-IP; endogenous proteins; extracts of BMDMs treated with LPS for the indicated time points; immunoblot. In general terms: A western blot detects proteins with antibodies after separation by electrophoresis.

B1: USP38 (enzyme, UniProt Q8BW70 1-1042)
chain: MDKILEGLVSSSHPLPLKRMIVRKVVEFAEHWLDEAQCEAMFDLTTRLILEGQDPFQRQVGHQVLEAYARYHRPEFESFFNKTFVLGLLQQGYHSVDRKDVAILDYIHNGLKLIMSCPSVLDLFSLLQVEVLRMVCERPEPVLCARLSDLLTDFVQCVPKGKLSVTFCQQLVRTIGHFQCVSTQEKELREYVSQVTKVSTLLQNIWKAEPSTLLPSLQEVFASISSTDASFEPSVALASLVQHIPLQMITVLIRSLTTDPNVKDASMTQALCRMIDWLSWPLAQHVDTWVIALLKGLAAVQKFTILIDVTLLKIELVFNRLWFPLVRPGALAVLSHMLLSFQHSPEAFHVIVPHIVNLVHSFRSDGLPSSTAFLVQLTELVHCMMYHYSGFPDLYEPILEAVKDFPKPSEEKIKLILNQSAWTSQSNALASCLSRLSGKSETGKTGLINLGNTCYMNSVLQALFMATEFRRQVLSLNLNGCNSLMKKLQHLFAFLAHTQREAYAPRIFFEASRPPWFTPRSQQDCSEYLRFLLDRLHEEEKILRVQSSHKPSEGLDCAETCLQEVTSKVAVPTESPGTGDSEKTLIEKMFGGKLRTHICCLNCGSTSHKVEAFTDLSLAFCPSPSVEDLSFQDTASLPSAQDDGLMQTSVADPEEEPVVYNPATAAFVCDSVVNQRVLGSPPVEFHCAESSSVPEESAKILISKDVPQNPGGESTTSVTDLLNYFLAPEVLTGENQYYCESCASLQNAEKTMQITEEPEYLILTLLRFSYDQKYHVRRKILDNVSLPLVLELPVKRTASFSSLSQSWSVDVDFTDINENLPKKLKPSGTEEAFCPKLVPYLLSSVVVHSGVSSESGHYYSYARNITGTESSYQMCPQSESLALAPSQSCLLGVESPNTVIEQDLENKEMSQEWFLFNDSRVTFTSFQSVQKITSRFPKDTAYVLLYKKQSRANGIDSDNPASGVWANGDPPLQKELMDAITKDNKLYLQEQELNARARALQAASASCSFRPNGFDDNDPPGSCGPTGGGGGGGFNTVGRLVF
For the molecule B1, the binding result is listed as “binds”.

The values are drawn from publication PMC7675183.
